Reference: PMC11671593
No constants are given. Whether binding was seen depends on the method and setting. For some of these results: Binding seen in cells or lysates may run through a third protein. Some results given as binding are weak or reduced against the parent protein; the word gives no strength. For some of these results: Sequences can lack the tags named with a protein.

By UniProt entry, the sequences of proteins in these tests, tags left out.
UniProt Q06330: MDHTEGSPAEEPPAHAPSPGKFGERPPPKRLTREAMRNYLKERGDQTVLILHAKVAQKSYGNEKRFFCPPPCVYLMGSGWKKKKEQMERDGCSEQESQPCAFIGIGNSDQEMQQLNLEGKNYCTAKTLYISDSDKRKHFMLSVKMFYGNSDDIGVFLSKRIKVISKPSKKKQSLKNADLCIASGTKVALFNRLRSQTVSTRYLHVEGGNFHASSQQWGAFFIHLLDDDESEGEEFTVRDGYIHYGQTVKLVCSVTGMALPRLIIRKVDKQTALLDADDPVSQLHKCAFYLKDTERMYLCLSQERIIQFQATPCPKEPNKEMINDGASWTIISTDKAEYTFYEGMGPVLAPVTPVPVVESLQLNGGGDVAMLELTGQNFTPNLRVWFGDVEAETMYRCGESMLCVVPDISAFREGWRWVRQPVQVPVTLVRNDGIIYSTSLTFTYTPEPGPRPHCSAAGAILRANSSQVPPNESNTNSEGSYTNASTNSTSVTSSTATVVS

Columns and labels:
GST-TRIM59 = target: T1, GST-TRIM59 (UniProt Q8IWR1); test: pull-down; GST-tagged proteins on GST agarose beads mixed with His-tagged proteins; beads washed five times with PBS; western blot; the paper calls the binding direct; both purified
T1 sequence: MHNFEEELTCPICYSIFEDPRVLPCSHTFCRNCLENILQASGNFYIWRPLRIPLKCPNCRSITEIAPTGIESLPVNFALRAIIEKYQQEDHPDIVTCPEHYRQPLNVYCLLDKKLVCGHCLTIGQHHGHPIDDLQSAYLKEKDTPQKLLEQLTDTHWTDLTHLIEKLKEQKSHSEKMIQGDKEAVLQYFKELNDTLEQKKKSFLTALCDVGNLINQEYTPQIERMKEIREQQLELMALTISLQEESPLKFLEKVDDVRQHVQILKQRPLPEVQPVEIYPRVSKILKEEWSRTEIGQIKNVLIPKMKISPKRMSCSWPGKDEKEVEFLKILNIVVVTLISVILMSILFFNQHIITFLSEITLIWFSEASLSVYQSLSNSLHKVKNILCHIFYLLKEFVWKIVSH

[1] = target: T2, Tripartite motif containing 59 (TRIM59), in PC cells (human (in human PC cell lines)) (UniProt Q8IWR1); test: co-IP; PC cells lysed; IP of TRIM59 and IP of RBPJ with primary antibodies overnight at 4 °C, protein A + G beads, western blot
T2 sequence: T1 sequence

GST-RBPJ = GST-RBPJ (UniProt Q06330); test: pull-down; GST-tagged proteins on GST agarose beads mixed with His-tagged proteins; beads washed five times with PBS; western blot; the paper calls the binding direct; both purified
[2] = target: RBPJ, full-length plasmid in HEK-293T cells (UniProt Q06330); test: co-IP; full-length and truncated plasmids of TRIM59 and RBPJ transfected into HEK-293T cells; Co-IP

## His-tagged RBPJ (from UniProt Q06330 1-500)
GST-TRIM59
  binding: binds

## Recombination signal binding protein for immunoglobulin kappa J region (RBPJ), in PC cells (from UniProt Q06330 1-500)
[1]
  binding: binds

B1: His-tagged TRIM59 (protein, UniProt Q8IWR1 1-403)
chain: T1 sequence
GST-RBPJ
  binding: binds

B2: TRIM59, full-length plasmid in HEK-293T cells (protein, UniProt Q8IWR1 1-403)
chain: T1 sequence
[2]
  binding: binds
